Results: PMC11564547, “An interaction network of inner centriole proteins organised by POC1A-POC1B heterodimer crosslinks ensures centriolar integrity” (Nature Communications, 2024)
No constants are given. Whether binding was seen depends on the method and setting. In cells and extracts the contact can be indirect. For some assays here: Binding can be weak; no strength is given. Where a sequence is shown, tags or fusion partners need not be part of it.

Assays:
[1] = target: T1, FAM161A-HA (UniProt Q3B820); assay: co-IP; HA IP from HEK293T cells co-expressing HA-tagged FAM161A (bait) and FLAG-tagged POC1 constructs (prey); same lysis and washes; beads boiled in Laemmli buffer; immunoblot
T1 sequence: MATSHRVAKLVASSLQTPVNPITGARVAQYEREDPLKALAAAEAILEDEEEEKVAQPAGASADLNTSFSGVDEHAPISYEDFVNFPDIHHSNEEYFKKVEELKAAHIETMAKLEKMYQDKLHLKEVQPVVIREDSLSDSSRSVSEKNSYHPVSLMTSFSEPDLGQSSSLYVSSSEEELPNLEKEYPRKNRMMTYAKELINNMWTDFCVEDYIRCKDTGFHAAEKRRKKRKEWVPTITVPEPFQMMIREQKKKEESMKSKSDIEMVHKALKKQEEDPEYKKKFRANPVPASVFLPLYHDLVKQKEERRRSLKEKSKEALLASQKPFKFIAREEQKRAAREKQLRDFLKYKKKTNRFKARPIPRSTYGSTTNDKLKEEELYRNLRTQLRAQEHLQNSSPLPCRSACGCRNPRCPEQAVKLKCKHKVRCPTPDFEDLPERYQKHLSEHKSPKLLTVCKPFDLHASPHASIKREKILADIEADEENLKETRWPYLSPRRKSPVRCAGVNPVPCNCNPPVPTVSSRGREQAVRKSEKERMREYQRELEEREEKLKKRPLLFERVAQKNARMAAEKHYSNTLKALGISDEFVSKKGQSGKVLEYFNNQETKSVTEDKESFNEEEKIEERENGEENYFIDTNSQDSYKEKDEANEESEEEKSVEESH

[2] = target: FLAG-tagged C-terminal coiled-coil region of POC1A (human); assay: co-IP; FLAG IP from HEK293T cells co-expressing FLAG-tagged POC1 constructs (bait) and HA-tagged partners (prey), Dox-induced, harvested after 24 h; lysis 150 mM NaCl, 10 mM Tris-Cl pH 7.5, 0.5 mM EDTA, 0.5% NP-40, Benzonase; beads 1 h at 4 °C; washes 300 mM NaCl; elution with FLAG peptide; immunoblot
[3] = target: FLAG-tagged C-terminal coiled-coil region of POC1B (human); assay: as above
[4] = target: FLAG-tagged WD40 domain of POC1A (human); assay: as above
[5] = target: FLAG-tagged WD40 domain of POC1B (human); assay: as above

FLAG-tagged C-terminal coiled-coil region of POC1A (human) (domain or fragment)
binding [1]: no binding

FLAG-tagged C-terminal coiled-coil region of POC1B (human) (domain or fragment)
binding [1]: no binding

FLAG-tagged WD40 domain of POC1A (human) (domain or fragment)
binding [1]: no binding

FLAG-tagged WD40 domain of POC1B (human) (domain or fragment)
binding [1]: no binding

B1: MDM1-HA (protein, UniProt Q8TC05 1-714)
chain: MPVRFKGLSEYQRNFLWKKSYLSESCNSSVGRKYPWAGLRSDQLGITKEPSFISKRRVPYHDPQISKSLEWNGAISESNVVASPEPEAPETPKSQEAEQKDVTQERVHSLEASRVPKRTRSHSADSRAEGASDVENNEGVTNHTPVNENVELEHSTKVLSENVDNGLDRLLRKKAGLTVVPSYNALRNSEYQRQFVWKTSKETAPAFAANQVFHNKSQFVPPFKGNSVIHETEYKRNFKGLSPVKEPKLRNDLRENRNLETVSPERKSNKIDDRLKLEAEMELKDLHQPKRKLTPWKHQRLGKVNSEYRAKFLSPAQYLYKAGAWTHVKGNMPNQVKELREKAEFYRKRVQGTHFSRDHLNQILSDSNCCWDVSSTTSSEGTVSSNIRALDLAGDPTSHKTLQKCPSTEPEEKGNIVEEQPQKNTTEKLGVSAPTIPVRRRLAWDTENTSEDVQKQPGEKEEEDDNEEEGDRKTGKQAFMGEQEKLDVREKSKADKMKEGSDSSVSSEKGGRLPTPKLRELGGIQRTHHDLTTPAVGGAVLVSPSKMKPPAPEQRKRMTSQDCLETSKNDFTKKESRAVSLLTSPAAGIKTVDPLPLREDSEDNIHKFAEATLPVSKIPKYPTNPPGQLPSPPHVPSYWHPSRRIQGSLRDPEFQHNVGKARMNNLQLPQHEAFNDEDEDRLSEISARSAASSLRAFQTLARAKKRKENFWGKT
binding [2]: binds
binding [3]: binds
binding [4]: no binding
binding [5]: no binding
